# Columns and labels:
# Cavia porcellus [1] = species on record: Cavia porcellus; assay: Chronotropic effect studied in right atria isolated from guinea pig and is expressed in pA2.; details: read-out: pA2 (converted)
# Cavia porcellus [2] = species on record: Cavia porcellus; assay: Ionotropic effect in electrically driven left atrial preparation (Atria isolated from guinea pig) and is expressed in pA2.; details: Cardiac atrium, read-out: pA2 (converted)
smiles,measurement,setting,value
CC(C)NCC(O)COc1cccc2ccccc12 (configuration not stated) [PROPRANOLOL],Kb,Cavia porcellus [1],5.01 nM
same,Kb,Cavia porcellus [2],7.94 nM

# From ChEMBL document CHEMBL1131212, “Synthesis and adrenergic activity of a new series of N-aryl dicyclopropyl ketone oxime ethers: SAR and stereochemical aspects” (J Med Chem, 1998)
